Assay results published in paper PMC4686654.
These are yes or no findings as the source states them, for the method shown.

The chains behind the UniProt entries cited, without tags or fusion partners. Residues count along the entry.
UniProt Q13464, residues 947-1015: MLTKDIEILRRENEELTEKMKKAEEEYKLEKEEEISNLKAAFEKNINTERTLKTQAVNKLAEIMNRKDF
UniProt P61586, residues 1-181: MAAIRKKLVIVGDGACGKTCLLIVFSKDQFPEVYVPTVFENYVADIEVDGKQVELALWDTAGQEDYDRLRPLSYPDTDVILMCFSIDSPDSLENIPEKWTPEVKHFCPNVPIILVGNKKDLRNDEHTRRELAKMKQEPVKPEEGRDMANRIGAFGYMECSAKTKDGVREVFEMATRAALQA

Molecular target: RBD fragment of human ROCK1 (947-1,015) (human) (UniProt Q13464)
Assay: SEC; Superose 6; 10-fold molar excess of RhoA-GMPPNP over ROCK; 20 mM Tris pH 7.5, 1 mM TCEP, 4 mM MgCl2, with or without 100 mM NaCl; both purified

RhoA 1-181, loaded with GMPPNP (from UniProt P61586 1-181) (domain or fragment)
binding: no binding (tested: 10-fold molar excess of RhoA-GMPPNP)
